# Source: the supplement of paper PMC8728848
# This is one part of the list.
# B1: SP15308F-bth-333-19-333 (Bacteroides thetaiotaomicron) (protein)
# chain: SCNNEWESEQYVQMVSFKAPVNAQGVTPIYIRYKPEGKVTYQLPLIVSGSTMNSKDLNVHVGLDLDTLDVLNVEHFGSRKELFFKPLENKYYEFPETVQIPAGECTSLLPIDFALKDLDQVDKWVLPLAIQSNDPSHNYQANPRKFYRRAMLRISPFNDYSGQYSATAYKVYFKGNEKEAIVPEYHTSYVIDDKTIFFYAGLIDIDRLDRKYYKIKFEFTEEKIDLQTRKLKISSDNEDINLVVKGQPSYTVEEEMDATRPYLKHIYVTINNLEYEFTDYTSVPGYPLEYVVKGSLTMERKINTQIPDEDQAIEW
# Key:
# Test in all cases: glycan array binding signal (z-score within array); higher = stronger binding
# Details in all cases: glycan notation: IUPAC condensed, linker removed
# GlcNAc(b1-3)Man = target: GlcNAc(b1-3)Man
# Method in brief: (§1)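 The binding signal is a Z-score computed within each array and averaged over linkers. Arrays of the same protein sequence at different concentrations or buffers were also averaged together. Data originate from 3228 arrays in the Consortium for Functional Glycomics database, kept only where the protein sequence was available.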
# [1] = target: GlcNAc(b1-3)[GlcNAc(b1-4)][GlcNAc(b1-6)]GlcNAc
# Method in brief: as §1
# [2] = target: GlcNAc(b1-3)[GlcNAc(b1-6)]Gal(b1-4)GlcNAc
# Method in brief: as §1
# [3] = target: GlcNAc(b1-3)[GlcNAc(b1-6)]GalNAc
# Method in brief: as §1
# [4] = target: GlcNAc(b1-4)Gal(b1-4)GlcNAc
# Method in brief: as §1
# GlcNAc(b1-4)GlcNAc = target: GlcNAc(b1-4)GlcNAc
# Method in brief: as §1
# [5] = target: GlcNAc(b1-4)GlcNAc(b1-4)GlcNAc
# Method in brief: as §1
# [6] = target: GlcNAc(b1-4)GlcNAc(b1-4)GlcNAc(b1-4)GlcNAc(b1-4)GlcNAc
# Method in brief: as §1
# [7] = target: GlcNAc(b1-4)GlcNAc(b1-4)GlcNAc(b1-4)GlcNAc(b1-4)GlcNAc(b1-4)GlcNAc
# Method in brief: as §1
# [8] = target: GlcNAc(b1-4)[GlcNAc(b1-6)]GalNAc
# Method in brief: as §1
# [9] = target: GlcNAc(b1-6)Gal(b1-4)GlcNAc
# Method in brief: as §1
# GlcNAc(b1-6)GalNAc = target: GlcNAc(b1-6)GalNAc
# Method in brief: as §1
# [10] = target: GlcNAc6S(b1-3)Gal(b1-4)GlcNAc
# Method in brief: as §1
# Kdn(a2-3)Gal(b1-3)GalNAc = target: Kdn(a2-3)Gal(b1-3)GalNAc
# Method in brief: as §1
# Kdn(a2-3)Gal(b1-3)GlcNAc = target: Kdn(a2-3)Gal(b1-3)GlcNAc
# Method in brief: as §1
# Kdn(a2-3)Gal(b1-4)Glc = target: Kdn(a2-3)Gal(b1-4)Glc
# Method in brief: as §1
# Kdn(a2-3)Gal(b1-4)GlcNAc = target: Kdn(a2-3)Gal(b1-4)GlcNAc
# Method in brief: as §1
# [11] = target: Kdn(a2-3)Gal(b1-4)[Fuc(a1-3)]GlcNAc
# Method in brief: as §1
# Kdn(a2-6)Gal(b1-4)GlcNAc = target: Kdn(a2-6)Gal(b1-4)GlcNAc
# Method in brief: as §1
# [12] = target: Man(a1-2)Man(a1-2)Man(a1-3)Man
# Method in brief: as §1
# [13] = target: Man(a1-2)Man(a1-2)Man(a1-6)[Man(a1-3)]Man
# Method in brief: as §1
# Man(a1-2)Man(a1-3)Man = target: Man(a1-2)Man(a1-3)Man
# Method in brief: as §1
# [14] = target: Man(a1-2)Man(a1-3)[Man(a1-2)Man(a1-6)]Man
# Method in brief: as §1
# [15] = target: Man(a1-2)Man(a1-3)[Man(a1-2)Man(a1-6)]Man(a1-6)[Man(a1-2)Man(a1-2)Man(a1-3)]Man
# Method in brief: as §1
# [16] = target: Man(a1-2)Man(a1-3)[Man(a1-2)Man(a1-6)]Man(a1-6)[Man(a1-2)Man(a1-2)Man(a1-3)]Man(b1-4)GlcNAc(b1-4)GlcNAc
# Method in brief: as §1
# [17] = target: Man(a1-2)Man(a1-3)[Man(a1-6)]Man(a1-6)[Man(a1-2)Man(a1-3)]Man(b1-4)GlcNAc(b1-4)GlcNAc
# Method in brief: as §1
# [18] = target: Man(a1-2)Man(a1-6)[Man(a1-3)]Man(a1-6)[Man(a1-2)Man(a1-2)Man(a1-3)]Man
# Method in brief: as §1
# [19] = target: Man(a1-2)Man(a1-6)[Man(a1-3)]Man(a1-6)[Man(a1-2)Man(a1-2)Man(a1-3)]Man(b1-4)GlcNAc(b1-4)GlcNAc
# Method in brief: as §1
# Man(a1-3)[Man(a1-6)]Man = target: Man(a1-3)[Man(a1-6)]Man
# Method in brief: as §1
# [20] = target: Man(a1-3)[Man(a1-6)]Man(a1-6)[Man(a1-2)Man(a1-3)]Man(b1-4)GlcNAc(b1-4)GlcNAc
# Method in brief: as §1
# [21] = target: Man(a1-3)[Man(a1-6)]Man(a1-6)[Man(a1-3)]Man
# Method in brief: as §1
# [22] = target: Man(a1-3)[Man(a1-6)]Man(a1-6)[Man(a1-3)]Man(b1-4)GlcNAc(b1-4)GlcNAc
# Method in brief: as §1
# [23] = target: Man(a1-3)[Man(a1-6)]Man(b1-4)GlcNAc(b1-4)GlcNAc
# Method in brief: as §1
# [24] = target: Man(a1-3)[Man(a1-6)]Man(b1-4)GlcNAc(b1-4)[Fuc(a1-6)]GlcNAc
# Method in brief: as §1
# Man(a1-6)Man = target: Man(a1-6)Man
# Method in brief: as §1
# Man(b1-4)GlcNAc = target: Man(b1-4)GlcNAc
# Method in brief: as §1
# MurNAc(b1-4)GlcNAc = target: MurNAc(b1-4)GlcNAc
# Method in brief: as §1
# Neu5Ac(a2-3)Gal = target: Neu5Ac(a2-3)Gal
# Method in brief: as §1
binder,measurement,setting,value
B1,glycan array binding signal (z-score),GlcNAc(b1-3)Man,-0.315
same,glycan array binding signal (z-score),[1],-0.542
same,glycan array binding signal (z-score),[2],0.452
same,glycan array binding signal (z-score),[3],0.482
same,glycan array binding signal (z-score),[4],-1.27
same,glycan array binding signal (z-score),GlcNAc(b1-4)GlcNAc,-0.867
same,glycan array binding signal (z-score),[5],-1.92
same,glycan array binding signal (z-score),[6],-0.314
same,glycan array binding signal (z-score),[7],-2
same,glycan array binding signal (z-score),[8],0.249
same,glycan array binding signal (z-score),[9],0.112
same,glycan array binding signal (z-score),GlcNAc(b1-6)GalNAc,0.53
same,glycan array binding signal (z-score),[10],-0.68
same,glycan array binding signal (z-score),Kdn(a2-3)Gal(b1-3)GalNAc,0.817
same,glycan array binding signal (z-score),Kdn(a2-3)Gal(b1-3)GlcNAc,-0.01
same,glycan array binding signal (z-score),Kdn(a2-3)Gal(b1-4)Glc,-0.56
same,glycan array binding signal (z-score),Kdn(a2-3)Gal(b1-4)GlcNAc,0.16
same,glycan array binding signal (z-score),[11],-0.982
same,glycan array binding signal (z-score),Kdn(a2-6)Gal(b1-4)GlcNAc,0.617
same,glycan array binding signal (z-score),[12],0.203
same,glycan array binding signal (z-score),[13],-0.065
same,glycan array binding signal (z-score),Man(a1-2)Man(a1-3)Man,-0.456
same,glycan array binding signal (z-score),[14],1.07
same,glycan array binding signal (z-score),[15],-1.01
same,glycan array binding signal (z-score),[16],-0.143
same,glycan array binding signal (z-score),[17],-1.62
same,glycan array binding signal (z-score),[18],-0.134
same,glycan array binding signal (z-score),[19],1.21
same,glycan array binding signal (z-score),Man(a1-3)[Man(a1-6)]Man,-0.694
same,glycan array binding signal (z-score),[20],-0.363
same,glycan array binding signal (z-score),[21],-0.462
same,glycan array binding signal (z-score),[22],-0.336
same,glycan array binding signal (z-score),[23],-1.23
same,glycan array binding signal (z-score),[24],-0.312
same,glycan array binding signal (z-score),Man(a1-6)Man,-0.195
same,glycan array binding signal (z-score),Man(b1-4)GlcNAc,0.769
same,glycan array binding signal (z-score),MurNAc(b1-4)GlcNAc,0.696
same,glycan array binding signal (z-score),Neu5Ac(a2-3)Gal,0.024

# Reformatted bar-delimited: part of the list above
binder | measurement | setting | value
B1 | glycan array binding signal (z-score) | Man(a1-3)[Man(a1-6)]Man | -0.694
same | glycan array binding signal (z-score) | [20] | -0.363
